Reference: PubChem BioAssay AID1671195 (Yale University, 2021)
In all, the deposit lists about 22,000 reagents; shown is a part drawn at random. In the full data, about 1,510 (6.9%) were called active. 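Active includes knockdowns raising or lowering LDL uptake; positive z-scores mean more uptake, negative mean less.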

Test: 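Genes whose knockdown alters LDL uptake in liver cancer cells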 (primary screen)
Cell system: human Huh7 hepatoma cells
Reagents: siRNA pool against human genes, 18 nM
Duration: about 2 to 2.5 days of knockdown, then 8 h LDL uptake
Challenge: DiI-labelled LDL at 30 µg/ml for 8 h, in lipoprotein-deficient serum medium
Measurement: 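Fluorescent LDL signal imaged in cells, scaled to the plate median, robust z-score for each replicate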
Direction: robust z-score: higher = more LDL uptake after knockdown
Rule for the call: 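Active when two or more replicates show a robust z-score above 2 or below -2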

{"gene symbol": "CAMK1G", "robust z-score, replicate 1": -0.179, "robust z-score, replicate 2": 1.17, "robust z-score, replicate 3": 1.46, "outcome": "inactive"}
{"gene symbol": "TBKBP1", "robust z-score, replicate 1": -0.538, "robust z-score, replicate 2": -1.79, "robust z-score, replicate 3": -1.46, "outcome": "inactive"}
{"gene symbol": "NKAIN4", "robust z-score, replicate 1": -0.0892, "robust z-score, replicate 2": 0.692, "robust z-score, replicate 3": 0.52, "outcome": "inactive"}
{"gene symbol": "GPAM", "robust z-score, replicate 1": 0.238, "robust z-score, replicate 2": 1.4, "robust z-score, replicate 3": 0.015, "outcome": "inactive"}
{"gene symbol": "RASA4", "robust z-score, replicate 1": 0.348, "robust z-score, replicate 2": 0.397, "robust z-score, replicate 3": 0.483, "outcome": "inactive"}
{"gene symbol": "PPP2R2C", "robust z-score, replicate 1": 0.0261, "robust z-score, replicate 2": -0.611, "robust z-score, replicate 3": -0.0766, "outcome": "inactive"}
{"gene symbol": "PPFIBP1", "robust z-score, replicate 1": -1.02, "robust z-score, replicate 2": -0.706, "robust z-score, replicate 3": -1.25, "outcome": "inactive"}
{"gene symbol": "COQ10A", "robust z-score, replicate 1": 1.61, "robust z-score, replicate 2": 1.15, "robust z-score, replicate 3": 1.69, "outcome": "inactive"}
{"gene symbol": "NAT9", "robust z-score, replicate 1": -0.732, "robust z-score, replicate 2": -0.555, "robust z-score, replicate 3": -0.591, "outcome": "inactive"}
{"gene symbol": "ALKBH8", "robust z-score, replicate 1": 0.428, "robust z-score, replicate 2": 0.415, "robust z-score, replicate 3": 0.238, "outcome": "inactive"}
{"gene symbol": "LOC401270 (retired record)", "robust z-score, replicate 1": 2.61, "robust z-score, replicate 2": 2.2, "robust z-score, replicate 3": 2.63, "outcome": "active"}
{"gene symbol": "PTGIS", "robust z-score, replicate 1": 2.53, "robust z-score, replicate 2": 3.95, "robust z-score, replicate 3": 2.73, "outcome": "active"}
{"gene symbol": "ZNF143", "robust z-score, replicate 1": -0.00628, "robust z-score, replicate 2": -0.194, "robust z-score, replicate 3": 0.393, "outcome": "inactive"}
{"gene symbol": "PTTG1IP", "robust z-score, replicate 1": -1.61, "robust z-score, replicate 2": -0.666, "robust z-score, replicate 3": -1.35, "outcome": "inactive"}
{"gene symbol": "PRR14L", "robust z-score, replicate 1": 1.01, "robust z-score, replicate 2": 0.871, "robust z-score, replicate 3": 0.85, "outcome": "inactive"}
{"gene symbol": "LOC441070 (retired record)", "robust z-score, replicate 1": -0.541, "robust z-score, replicate 2": -0.557, "robust z-score, replicate 3": -0.671, "outcome": "inactive"}

2 entries from above, reformatted.
| gene symbol | robust z-score, replicate 1 | robust z-score, replicate 2 | robust z-score, replicate 3 | outcome |
| --- | --- | --- | --- | --- |
| PPFIBP1 | -1.02 | -0.706 | -1.25 | inactive |
| COQ10A | 1.61 | 1.15 | 1.69 | inactive |
